Test results reported in US8999981B2, “3-amido-pyrrolo[3,4-C]pyrazole-5(1H, 4H,6H) carbaldehyde derivatives” (Pfizer Inc., priority 2007, dated 2015).

The chains behind the UniProt entries cited, without tags or fusion partners. A line that says so, or that is headed by a name, gives the form on record, which may keep a tag or linker. Residues count along the entry.
UniProt P05771, 1-621 with tags or gaps limits assumed: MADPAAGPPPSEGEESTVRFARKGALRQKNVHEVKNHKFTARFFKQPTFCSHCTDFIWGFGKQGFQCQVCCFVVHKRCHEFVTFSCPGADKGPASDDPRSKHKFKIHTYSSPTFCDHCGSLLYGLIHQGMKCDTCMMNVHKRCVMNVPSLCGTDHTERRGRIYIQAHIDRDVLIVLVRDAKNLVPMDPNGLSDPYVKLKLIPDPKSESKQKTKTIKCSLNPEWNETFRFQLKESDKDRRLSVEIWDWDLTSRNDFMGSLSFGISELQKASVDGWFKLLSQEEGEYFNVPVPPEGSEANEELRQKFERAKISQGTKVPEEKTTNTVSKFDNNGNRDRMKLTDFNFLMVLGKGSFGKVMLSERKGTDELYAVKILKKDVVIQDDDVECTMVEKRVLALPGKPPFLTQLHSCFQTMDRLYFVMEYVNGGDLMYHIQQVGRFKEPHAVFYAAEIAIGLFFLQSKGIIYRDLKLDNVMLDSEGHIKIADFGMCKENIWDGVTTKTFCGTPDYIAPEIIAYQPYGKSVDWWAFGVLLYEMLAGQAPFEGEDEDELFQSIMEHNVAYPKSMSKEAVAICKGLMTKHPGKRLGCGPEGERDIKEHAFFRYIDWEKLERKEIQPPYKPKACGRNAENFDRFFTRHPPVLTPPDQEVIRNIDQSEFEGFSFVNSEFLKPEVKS

Biological target: Protein Kinase C beta 2 (PKCβII) (Homo sapiens (Human), UniProt P05771)
Test: PKCβII coupled PK/LDH spectrophotometric kinase assay
Format: biochemical
Details: read-out: PKCb Ki
[1] = apparent Ki, ATP-competitive model (Morrison equation), 0.1 mM ATP, 30° C.

| SMILES | Ki [1] | Ki |
| --- | --- | --- |
| CCc1cc(C(=O)Nc2n[nH]c3c2CN(C(=O)N2C[C@@H](C)N(CC4CCOCC4)C[C@@H]2C)C3(C)C)n(C)n1 | < 10 nM |  |
| C[C@@H]1CN(C(=O)N2Cc3c(NC(=O)c4ncccn4)n[nH]c3C2(C)C)[C@@H](C)CN1C | 96.1 nM |  |
| COCCN1C[C@H](C)N(C(=O)N2Cc3c(NC(=O)c4ccccn4)n[nH]c3C2(C)C)C[C@H]1C [Example A93] |  | 38.8 nM |
| CCN1C[C@H](C)N(C(=O)N2Cc3c(NC(=O)c4ccccn4)n[nH]c3C2(C)C)C[C@H]1C [Example A95] |  | 19.5 nM |
| C[C@H]1CN2CCC[C@@]2(C)CN1C(=O)N1Cc2c(NC(=O)c3ccccn3)n[nH]c2C1(C)C | 57.6 nM |  |

Where two headings read alike, the source gives them in different places. The match of structure and compound is tentative.
